This is a selection; strong and weak results do not stand in their true shares. At the low end of the ranking, values are background and their order means little.
Legend:
Assay in all cases: DAPPL (digital affinity profiling via proximity ligation, sequencing)
Conditions in all cases: 10 mM Tris-HCl pH 7.5, 50 mM NaCl, 1 mM DTT, 4% glycerol, room temperature, 30 min; GST-TFs on glutathione beads, 16-mer random dsDNA library, 0.1% …; high values mean tight binding; double strand, one strand shown; scale: fold enrichment (6-mer frequency, TF over GST control)
[1] = molecular target: T1, ELK1 (UniProt P19419)
T1 sequence: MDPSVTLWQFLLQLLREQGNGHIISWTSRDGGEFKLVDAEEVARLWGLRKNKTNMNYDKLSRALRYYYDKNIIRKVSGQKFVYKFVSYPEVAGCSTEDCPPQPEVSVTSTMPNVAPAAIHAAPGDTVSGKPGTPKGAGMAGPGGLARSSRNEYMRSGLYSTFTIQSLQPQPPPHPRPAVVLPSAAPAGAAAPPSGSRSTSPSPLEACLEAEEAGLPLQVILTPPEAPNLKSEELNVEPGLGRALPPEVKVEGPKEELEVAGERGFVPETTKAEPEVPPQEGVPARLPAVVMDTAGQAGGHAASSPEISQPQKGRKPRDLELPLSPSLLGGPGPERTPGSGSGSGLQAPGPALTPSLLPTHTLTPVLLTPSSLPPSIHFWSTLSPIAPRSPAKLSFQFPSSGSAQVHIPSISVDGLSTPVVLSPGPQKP

[2] = molecular target: T2, ELK3 (UniProt P41970)
T2 sequence: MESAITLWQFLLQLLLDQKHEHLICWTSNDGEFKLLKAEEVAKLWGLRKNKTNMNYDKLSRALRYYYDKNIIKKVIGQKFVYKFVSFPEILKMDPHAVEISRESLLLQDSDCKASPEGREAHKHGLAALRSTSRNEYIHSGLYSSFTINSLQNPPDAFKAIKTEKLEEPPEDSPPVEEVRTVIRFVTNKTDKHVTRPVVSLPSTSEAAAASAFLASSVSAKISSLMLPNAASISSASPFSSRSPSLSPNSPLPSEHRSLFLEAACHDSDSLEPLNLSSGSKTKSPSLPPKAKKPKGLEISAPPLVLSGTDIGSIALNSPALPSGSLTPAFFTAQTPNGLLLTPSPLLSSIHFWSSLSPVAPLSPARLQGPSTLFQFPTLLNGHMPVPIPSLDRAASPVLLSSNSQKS

[3] = molecular target: T3, SPIC (UniProt Q8N5J4)
T3 sequence: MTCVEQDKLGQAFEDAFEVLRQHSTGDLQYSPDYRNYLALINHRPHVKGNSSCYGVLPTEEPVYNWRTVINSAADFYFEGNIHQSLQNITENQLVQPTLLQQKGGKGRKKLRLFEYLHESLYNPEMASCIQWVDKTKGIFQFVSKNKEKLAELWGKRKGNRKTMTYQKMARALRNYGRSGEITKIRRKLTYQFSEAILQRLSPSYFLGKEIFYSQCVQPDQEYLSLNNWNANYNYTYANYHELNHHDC

[4] = molecular target: T4, ETS2 (UniProt P15036)
T4 sequence: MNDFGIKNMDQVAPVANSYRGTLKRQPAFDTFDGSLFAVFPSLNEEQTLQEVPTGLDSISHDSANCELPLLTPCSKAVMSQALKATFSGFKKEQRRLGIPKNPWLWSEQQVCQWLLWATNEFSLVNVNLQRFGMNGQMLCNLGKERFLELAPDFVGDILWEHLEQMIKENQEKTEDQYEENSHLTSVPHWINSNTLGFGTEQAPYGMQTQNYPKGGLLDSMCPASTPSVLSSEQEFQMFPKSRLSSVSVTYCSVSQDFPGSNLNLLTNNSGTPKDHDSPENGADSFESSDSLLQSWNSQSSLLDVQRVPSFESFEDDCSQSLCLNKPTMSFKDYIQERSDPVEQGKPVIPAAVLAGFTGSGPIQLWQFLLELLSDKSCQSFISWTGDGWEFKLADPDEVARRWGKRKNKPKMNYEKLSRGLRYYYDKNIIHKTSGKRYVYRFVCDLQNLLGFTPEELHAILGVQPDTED

[5] = molecular target: T5, ETV3 (UniProt P41162-2)
T5 sequence: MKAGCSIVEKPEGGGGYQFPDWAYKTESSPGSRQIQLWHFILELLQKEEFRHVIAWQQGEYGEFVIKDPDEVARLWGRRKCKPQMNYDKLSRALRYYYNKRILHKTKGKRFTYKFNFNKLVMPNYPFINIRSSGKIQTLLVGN

Sequence	binding signal [1]	binding signal [2]	binding signal [3]	binding signal [4]	binding signal [5]
TCCAGG	0.81	0.834	0.818	0.842	0.88
AGGGGG	0.628	0.544	0.626	0.603	0.601
GGGTTA	0.843	0.796	0.855	0.871	0.904
GCGTGT	0.585	0.502	0.599	0.583	0.592
GATAGA	0.836	0.863	0.735	0.767	0.777
ACAGAC	0.753	0.771	0.81	0.773	0.839
AGCGGG	0.491	0.518	0.489	0.472	0.451
CGTAGT	0.792	0.783	0.781	0.788	0.841
GTGATC	0.81	0.832	0.699	0.859	0.805
GAGACA	0.376	0.405	0.357	0.397	0.369
GCCGTG	0.233	0.229	0.202	0.238	0.267
TCGGTA	0.553	0.616	0.577	0.598	0.555
CCGGAG	0.506	0.55	0.474	0.504	0.541
GGAACG	0.651	0.632	0.649	0.589	0.656
AAGACA	0.979	1.01	0.987	–	0.99
CAGCAG	0.784	0.776	0.98	0.886	0.849
GTTGGA	0.489	0.495	0.421	0.484	0.471
GGAACC	0.885	0.814	0.864	0.818	0.861
AGTTCA	0.947	0.889	0.964	–	0.915
GGATGA	0.963	0.792	0.97	1.1	–
GAGGTT	0.703	0.702	0.605	0.817	0.793
GATGTG	0.887	0.953	0.931	0.994	–
GGGCCA	0.694	0.657	0.706	0.69	0.749
CGGTGG	0.699	0.722	0.549	0.651	0.657

Reprinted from the listing for reference:
Sequence	binding signal [1]	binding signal [2]	binding signal [3]	binding signal [4]	binding signal [5]
GGAACC	0.885	0.814	0.864	0.818	0.861
AGTTCA	0.947	0.889	0.964	–	0.915
